Reference: publication PMC5495492
Like-named read-outs stand apart in the source and are kept apart here. These are yes or no findings as the source states them, for the method shown. Binding seen in cells or lysates may run through a third protein. These calls come from enrichment with a bait or labelling near it, and not all partners need be listed. For some assays here: No binding means not detected with the bait.

Chains of the proteins cited; added tags and fusions are not shown. Lines headed by an entry give the natural chain unless they say otherwise; changes in a name come on top.
UniProt Q8LPR5: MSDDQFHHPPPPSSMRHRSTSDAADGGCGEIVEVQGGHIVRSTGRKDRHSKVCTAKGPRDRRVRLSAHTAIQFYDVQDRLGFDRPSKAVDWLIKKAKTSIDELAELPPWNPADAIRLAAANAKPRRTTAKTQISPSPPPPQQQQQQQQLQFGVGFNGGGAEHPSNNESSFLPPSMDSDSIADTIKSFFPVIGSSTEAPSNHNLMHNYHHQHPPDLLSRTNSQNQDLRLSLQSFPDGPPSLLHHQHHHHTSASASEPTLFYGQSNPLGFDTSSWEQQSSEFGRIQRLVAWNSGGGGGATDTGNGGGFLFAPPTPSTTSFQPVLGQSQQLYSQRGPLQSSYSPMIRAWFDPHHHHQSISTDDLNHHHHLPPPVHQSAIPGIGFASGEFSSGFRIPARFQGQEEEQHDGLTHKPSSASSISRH
UniProt Q9SQI2: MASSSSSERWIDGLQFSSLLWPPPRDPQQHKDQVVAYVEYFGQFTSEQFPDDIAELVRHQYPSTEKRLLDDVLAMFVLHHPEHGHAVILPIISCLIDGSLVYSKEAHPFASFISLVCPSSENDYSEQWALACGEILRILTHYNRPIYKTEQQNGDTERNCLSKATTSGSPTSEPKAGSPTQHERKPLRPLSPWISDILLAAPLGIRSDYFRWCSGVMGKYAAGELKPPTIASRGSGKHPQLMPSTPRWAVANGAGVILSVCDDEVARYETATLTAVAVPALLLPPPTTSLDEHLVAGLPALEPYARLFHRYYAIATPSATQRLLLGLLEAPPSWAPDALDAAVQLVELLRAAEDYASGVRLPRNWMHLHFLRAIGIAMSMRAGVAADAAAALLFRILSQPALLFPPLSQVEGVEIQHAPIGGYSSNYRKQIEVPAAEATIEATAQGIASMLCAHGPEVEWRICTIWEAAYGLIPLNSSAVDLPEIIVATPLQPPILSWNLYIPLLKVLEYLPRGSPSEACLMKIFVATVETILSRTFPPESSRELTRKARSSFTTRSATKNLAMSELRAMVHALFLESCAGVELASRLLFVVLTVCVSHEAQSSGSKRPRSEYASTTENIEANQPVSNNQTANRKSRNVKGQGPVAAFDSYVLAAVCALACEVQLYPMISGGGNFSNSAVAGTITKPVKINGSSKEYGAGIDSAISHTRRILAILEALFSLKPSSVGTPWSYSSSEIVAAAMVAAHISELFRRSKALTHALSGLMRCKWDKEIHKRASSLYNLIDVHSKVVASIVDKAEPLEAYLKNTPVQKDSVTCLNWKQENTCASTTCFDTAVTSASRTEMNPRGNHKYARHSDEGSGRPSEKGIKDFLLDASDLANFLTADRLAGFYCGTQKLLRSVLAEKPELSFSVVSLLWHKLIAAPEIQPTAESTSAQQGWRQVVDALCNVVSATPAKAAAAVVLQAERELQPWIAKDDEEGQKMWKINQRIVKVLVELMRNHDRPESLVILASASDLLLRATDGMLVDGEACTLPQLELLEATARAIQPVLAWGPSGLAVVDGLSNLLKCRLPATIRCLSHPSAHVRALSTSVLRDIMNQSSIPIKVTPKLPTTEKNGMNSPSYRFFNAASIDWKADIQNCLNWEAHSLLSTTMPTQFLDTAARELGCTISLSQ

Assays:
[1] = target: TCP4-3F6H (Arabidopsis thaliana) (UniProt Q8LPR5); assay: affinity purification with mass spectrometry; tandem affinity purification (anti-FLAG Dynabeads, then as in ref. 67) of TCP4-3F6H from 2-week-old 35S:TCP4-3F6H seedlings in WT and gi-2 backgrounds harvested at ZT13; Col-0 as control; on-bead digestion, LC-MS/MS
[2] = target: TCP4-3F6H (Arabidopsis thaliana) (UniProt Q8LPR5); assay: as above; remark: listed apart in the source

Molecule	binding [1]	binding [2]
GIGANTEA (GI), endogenous (from UniProt Q9SQI2 1-1173)	no binding	–
TCP10, endogenous (protein, UniProt O82277 1-361) MGLKGYSVGEGGGEIVEVQGGHIIRATGRKDRHSKVFTSKGPRDRRVRLSAHTAIQFYDVQDRLGYDRPSKAVDWLIKKAKTAIDKLELGETTTTTTRQEPVNTKPESPTLVFQRENNDQTQFVAANLDPEDAMKTFFPATTTTNGGGGTNINFQNYPHQDDNNMVSRTTTPPPNLSQDLGLSLHPFQGNNNTVVVPETNNFTTTHFDTFGRISGWNHHDLTMTSSSSSEHQQQEQEERSNGGFMVNHHPHHHHHQPSMMTLLNSQQQQVFLGGQQQQQQRGTLQSSLFPHSFRSWDHHQTTSDHHHHQNQASSMFASSSQYGSHGMMMMQGLSFPNTTRLLHGEEATQPNSSSSPPNSHL	–	binds
TCP24, endogenous (protein, UniProt Q9C758 1-324) MEVDEDIELQKHQEQQSRKLQRFSEDNTGLMRNWNNPSSRIIRVSRASGGKDRHSKVLTSKGLRDRRIRLSVATAIQFYDLQDRLGFDQPSKAVEWLINAASDSITDLPLLNTNFDHLDQNQNQTKSACSSGTSESSLLSLSRTEIRGKARERARERTAKDRDKDLQNAHSSFTQLLTGGFDQQPSNRNWTGGSDCFNPVQLQIPNSSSQEPMNHPFSFVPDYNFGISSSSSAINGGYSSRGTLQSNSQSLFLNNNNNITQRSSISSSSSSSSPMDSQSISFFMATPPPLDHHNHQLPETFDGRLYLYYGEGNRSSDDKAKERR	–	binds
TCP2, endogenous (protein, UniProt Q93V43 1-365) MIGDLMKNNNNGDVVDNEVNNRLSRWHHNSSRIIRVSRASGGKDRHSKVLTSKGPRDRRVRLSVSTALQFYDLQDRLGYDQPSKAVEWLIKAAEDSISELPSLNNTHFPTDDENHQNQTLTTVAANSLSKSACSSNSDTSKNSSGLSLSRSELRDKARERARERTAKETKERDHNHTSFTDLLNSGSDPVNSNRQWMASAPSSSPMEYFSSGLILGSGQQTHFPISTNSHPFSSISDHHHHHPHHQHQEFSFVPDHLISPAESNGGAFNLDFNMSTPSGAGAAVSAASGGGFSGFNRGTLQSNSTNQHQSFLANLQRFPTSESGGGPQFLFGALPAENHHHNHQFQLYYENGCRNSSEHKGKGKN	–	binds
TCP3, endogenous (protein, UniProt Q9MAH8 1-391) MAPDNDHFLDSPSPPLLEMRHHQSATENGGGCGEIVEVQGGHIVRSTGRKDRHSKVCTAKGPRDRRVRLSAPTAIQFYDVQDRLGFDRPSKAVDWLITKAKSAIDDLAQLPPWNPADTLRQHAAAAANAKPRKTKTLISPPPPQPEETEHHRIGEEEDNESSFLPASMDSDSIADTIKSFFPVASTQQSYHHQPPSRGNTQNQDLLRLSLQSFQNGPPFPNQTEPALFSGQSNNQLAFDSSTASWEQSHQSPEFGKIQRLVSWNNVGAAESAGSTGGFVFASPSSLHPVYSQSQLLSQRGPLQSINTPMIRAWFDPHHHHHHHQQSMTTDDLHHHHPYHIPPGIHQSAIPGIAFASSGEFSGFRIPARFQGEQEEHGGDNKPSSASSDSRH	–	binds
TCP13, endogenous (protein, UniProt Q9S7W5 1-355) MNIVSWKDANDEVAGGATTRREREVKEDQEETEVRATSGKTVIKKQPTSISSSSSSWMKSKDPRIVRVSRAFGGKDRHSKVCTLRGLRDRRVRLSVPTAIQLYDLQERLGVDQPSKAVDWLLDAAKEEIDELPPLPISPENFSIFNHHQSFLNLGQRPGQDPTQLGFKINGCVQKSTTTSREENDREKGENDVVYTNNHHVGSYGTYHNLEHHHHHHQHLSLQADYHSHQLHSLVPFPSQILVCPMTTSPTTTTIQSLFPSSSSAGSGTMETLDPRQMVSHFQMPLMGNSSSSSSQNISTLYSLLHGSSSNNGGRDIDNRMSSVQFNRTNSTTTANMSRHLGSERCTSRGSDHHM	–	binds
TCP5, endogenous (protein, UniProt Q9FME3 1-360) MRSGECDEEEIQAKQERDQNQNHQVNLNHMLQQQQPSSVSSSRQWTSAFRNPRIVRVSRTFGGKDRHSKVCTVRGLRDRRIRLSVPTAIQLYDLQDRLGLSQPSKVIDWLLEAAKDDVDKLPPLQFPHGFNQMYPNLIFGNSGFGESPSSTTSTTFPGTNLGFLENWDLGGSSRTRARLTDTTTTQRESFDLDKGKWIKNDENSNQDHQGFNTNHQQQFPLTNPYNNTSAYYNLGHLQQSLDQSGNNVTVAISNVAANNNNNLNLHPPSSSAGDGSQLFFGPTPPAMSSLFPTYPSFLGASHHHHVVDGAGHLQLFSSNSNTASQQHMMPGNTSLIRPFHHLMSSNHDTDHHSSDNESDS	–	binds
TCP17, endogenous (protein, UniProt Q9LEZ9 1-242) MGIKKEDQKSSLSLLTQRWNNPRIVRVSRAFGGKDRHSKVCTVRGLRDRRIRLSVMTAIQVYDLQERLGLSQPSKVIDWLLEVAKNDVDLLPPLQFPPGFHQLNPNLTGLGESFPGVFDLGRTQREALDLEKRKWVNLDHVFDHIDHHNHFSNSIQSNKLYFPTITSSSSSYHYNLGHLQQSLLDQSGNVTVAFSNNYNNNNLNPPAAETMSSLFPTRYPSFLGGGQLQLFSSTSSQPDHIE	–	binds
